Experimental data: the supplement of paper PMC10849652
The other results are listed elsewhere or left out.

Amino acid sequences for entries named in this document (tags omitted). A change or cut given only in a name is not applied to a line headed by its entry.
UniProt Q96AB3: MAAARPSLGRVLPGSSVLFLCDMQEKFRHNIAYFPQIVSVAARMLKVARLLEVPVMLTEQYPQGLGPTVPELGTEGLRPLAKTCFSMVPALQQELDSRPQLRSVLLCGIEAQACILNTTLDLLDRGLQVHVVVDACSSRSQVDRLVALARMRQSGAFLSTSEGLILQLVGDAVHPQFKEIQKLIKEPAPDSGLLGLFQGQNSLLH
UniProt Q92993, whole entry, looked up: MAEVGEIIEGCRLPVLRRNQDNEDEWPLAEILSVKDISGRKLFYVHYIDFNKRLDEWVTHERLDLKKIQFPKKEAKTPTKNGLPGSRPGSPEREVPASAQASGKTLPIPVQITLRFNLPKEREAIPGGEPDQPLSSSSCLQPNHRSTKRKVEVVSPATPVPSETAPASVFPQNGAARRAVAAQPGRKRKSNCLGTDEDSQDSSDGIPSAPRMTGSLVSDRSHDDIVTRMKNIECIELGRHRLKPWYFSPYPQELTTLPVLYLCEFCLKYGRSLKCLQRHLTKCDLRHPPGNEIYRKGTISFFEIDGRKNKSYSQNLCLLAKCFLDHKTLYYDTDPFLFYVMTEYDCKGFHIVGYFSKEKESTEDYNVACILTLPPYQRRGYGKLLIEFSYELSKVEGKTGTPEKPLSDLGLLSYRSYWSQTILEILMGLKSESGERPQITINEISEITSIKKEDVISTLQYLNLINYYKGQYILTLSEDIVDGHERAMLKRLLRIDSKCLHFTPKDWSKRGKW
UniProt P05161, whole entry, looked up: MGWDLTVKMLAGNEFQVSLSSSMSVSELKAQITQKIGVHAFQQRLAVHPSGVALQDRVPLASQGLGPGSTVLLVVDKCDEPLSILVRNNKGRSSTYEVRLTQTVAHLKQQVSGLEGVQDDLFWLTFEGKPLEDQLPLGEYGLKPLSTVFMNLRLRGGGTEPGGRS
UniProt Q9NVX7: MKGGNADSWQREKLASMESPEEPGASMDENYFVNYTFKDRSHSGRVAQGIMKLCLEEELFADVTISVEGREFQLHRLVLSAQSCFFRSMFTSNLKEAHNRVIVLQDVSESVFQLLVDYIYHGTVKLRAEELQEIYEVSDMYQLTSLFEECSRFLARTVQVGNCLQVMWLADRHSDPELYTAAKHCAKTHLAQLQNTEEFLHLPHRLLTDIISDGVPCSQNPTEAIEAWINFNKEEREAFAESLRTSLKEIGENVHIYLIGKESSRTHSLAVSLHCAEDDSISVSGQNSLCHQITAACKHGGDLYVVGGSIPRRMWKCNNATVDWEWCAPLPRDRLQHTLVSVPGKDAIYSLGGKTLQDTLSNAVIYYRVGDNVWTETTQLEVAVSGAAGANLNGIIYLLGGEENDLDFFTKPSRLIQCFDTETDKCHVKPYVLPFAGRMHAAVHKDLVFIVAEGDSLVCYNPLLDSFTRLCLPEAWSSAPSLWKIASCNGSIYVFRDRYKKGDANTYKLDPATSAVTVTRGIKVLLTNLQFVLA
UniProt Q674X7: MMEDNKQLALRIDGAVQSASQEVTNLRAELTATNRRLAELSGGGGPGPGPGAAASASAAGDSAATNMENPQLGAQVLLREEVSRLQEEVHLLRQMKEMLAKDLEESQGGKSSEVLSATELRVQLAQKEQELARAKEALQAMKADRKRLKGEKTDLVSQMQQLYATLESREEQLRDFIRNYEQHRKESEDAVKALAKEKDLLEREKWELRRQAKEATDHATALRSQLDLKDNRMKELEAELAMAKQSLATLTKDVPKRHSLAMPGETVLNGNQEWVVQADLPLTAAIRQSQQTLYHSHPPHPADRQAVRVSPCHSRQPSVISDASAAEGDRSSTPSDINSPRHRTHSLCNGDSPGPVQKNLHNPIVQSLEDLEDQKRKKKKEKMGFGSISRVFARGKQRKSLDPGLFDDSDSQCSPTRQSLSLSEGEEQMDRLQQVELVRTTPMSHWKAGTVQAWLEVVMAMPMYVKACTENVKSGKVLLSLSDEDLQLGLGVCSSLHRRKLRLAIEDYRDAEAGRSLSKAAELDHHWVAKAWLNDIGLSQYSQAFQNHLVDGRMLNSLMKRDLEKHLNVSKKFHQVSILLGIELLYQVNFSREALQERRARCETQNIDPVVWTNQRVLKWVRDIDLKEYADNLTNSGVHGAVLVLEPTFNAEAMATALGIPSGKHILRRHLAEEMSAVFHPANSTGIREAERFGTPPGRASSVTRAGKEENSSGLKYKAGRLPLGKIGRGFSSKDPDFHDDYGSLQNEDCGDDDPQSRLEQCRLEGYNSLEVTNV
UniProt Q96SY0, whole entry, looked up: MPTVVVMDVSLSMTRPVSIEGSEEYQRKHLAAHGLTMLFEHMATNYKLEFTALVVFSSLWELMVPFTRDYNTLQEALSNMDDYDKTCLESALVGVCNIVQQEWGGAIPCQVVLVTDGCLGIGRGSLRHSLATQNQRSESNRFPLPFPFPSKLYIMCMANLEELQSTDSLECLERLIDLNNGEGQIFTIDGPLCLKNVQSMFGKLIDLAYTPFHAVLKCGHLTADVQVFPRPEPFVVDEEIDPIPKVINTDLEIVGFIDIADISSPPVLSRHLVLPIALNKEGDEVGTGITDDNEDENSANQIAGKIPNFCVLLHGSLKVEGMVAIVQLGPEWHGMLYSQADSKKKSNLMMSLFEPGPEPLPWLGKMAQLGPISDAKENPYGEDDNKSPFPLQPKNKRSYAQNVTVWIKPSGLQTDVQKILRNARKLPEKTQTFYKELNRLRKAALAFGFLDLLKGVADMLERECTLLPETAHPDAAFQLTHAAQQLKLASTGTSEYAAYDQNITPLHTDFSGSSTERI
UniProt Q9H9V9: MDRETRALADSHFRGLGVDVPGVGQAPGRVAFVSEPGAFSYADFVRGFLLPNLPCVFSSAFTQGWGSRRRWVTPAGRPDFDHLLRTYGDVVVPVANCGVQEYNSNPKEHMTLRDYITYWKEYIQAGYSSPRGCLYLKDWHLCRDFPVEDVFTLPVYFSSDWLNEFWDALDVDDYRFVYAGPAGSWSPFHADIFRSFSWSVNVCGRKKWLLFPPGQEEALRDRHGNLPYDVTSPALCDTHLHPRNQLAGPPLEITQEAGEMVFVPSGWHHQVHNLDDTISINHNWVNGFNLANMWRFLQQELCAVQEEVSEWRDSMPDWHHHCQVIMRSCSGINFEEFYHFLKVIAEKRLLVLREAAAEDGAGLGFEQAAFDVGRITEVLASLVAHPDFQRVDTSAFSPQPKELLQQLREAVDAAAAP
UniProt Q9NVH2, whole entry, looked up: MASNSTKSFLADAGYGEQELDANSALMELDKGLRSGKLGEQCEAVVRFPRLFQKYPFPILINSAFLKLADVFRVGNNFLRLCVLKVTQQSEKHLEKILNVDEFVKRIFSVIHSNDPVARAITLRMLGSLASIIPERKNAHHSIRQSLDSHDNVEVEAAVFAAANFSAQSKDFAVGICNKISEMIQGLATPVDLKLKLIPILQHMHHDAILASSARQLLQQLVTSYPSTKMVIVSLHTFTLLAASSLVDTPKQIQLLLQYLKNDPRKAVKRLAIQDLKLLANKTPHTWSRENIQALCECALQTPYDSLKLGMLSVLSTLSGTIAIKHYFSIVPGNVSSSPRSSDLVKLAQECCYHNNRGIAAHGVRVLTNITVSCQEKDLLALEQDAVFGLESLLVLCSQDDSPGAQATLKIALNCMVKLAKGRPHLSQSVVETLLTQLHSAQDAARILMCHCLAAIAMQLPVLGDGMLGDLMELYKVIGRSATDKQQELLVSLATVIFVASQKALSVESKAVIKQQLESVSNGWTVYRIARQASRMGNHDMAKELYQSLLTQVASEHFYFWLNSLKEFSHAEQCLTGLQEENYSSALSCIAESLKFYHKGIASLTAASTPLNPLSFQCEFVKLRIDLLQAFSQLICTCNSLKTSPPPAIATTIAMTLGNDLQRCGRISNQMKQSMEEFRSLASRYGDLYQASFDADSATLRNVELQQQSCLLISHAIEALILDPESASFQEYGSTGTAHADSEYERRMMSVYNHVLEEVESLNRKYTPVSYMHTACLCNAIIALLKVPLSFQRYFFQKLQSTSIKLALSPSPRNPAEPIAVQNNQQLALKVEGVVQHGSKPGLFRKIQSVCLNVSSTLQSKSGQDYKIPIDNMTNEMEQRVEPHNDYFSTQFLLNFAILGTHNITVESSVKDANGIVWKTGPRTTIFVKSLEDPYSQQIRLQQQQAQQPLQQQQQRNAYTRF
UniProt Q13303: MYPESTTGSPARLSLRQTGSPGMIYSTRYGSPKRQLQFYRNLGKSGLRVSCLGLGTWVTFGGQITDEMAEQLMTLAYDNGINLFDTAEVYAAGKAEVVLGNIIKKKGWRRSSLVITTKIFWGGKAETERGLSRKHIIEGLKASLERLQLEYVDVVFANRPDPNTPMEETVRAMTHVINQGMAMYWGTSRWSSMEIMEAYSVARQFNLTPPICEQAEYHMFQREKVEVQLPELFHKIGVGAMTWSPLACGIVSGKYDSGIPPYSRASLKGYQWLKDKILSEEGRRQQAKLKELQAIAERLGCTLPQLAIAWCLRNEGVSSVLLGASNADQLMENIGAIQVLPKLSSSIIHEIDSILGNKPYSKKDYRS
UniProt P46940, whole entry, looked up: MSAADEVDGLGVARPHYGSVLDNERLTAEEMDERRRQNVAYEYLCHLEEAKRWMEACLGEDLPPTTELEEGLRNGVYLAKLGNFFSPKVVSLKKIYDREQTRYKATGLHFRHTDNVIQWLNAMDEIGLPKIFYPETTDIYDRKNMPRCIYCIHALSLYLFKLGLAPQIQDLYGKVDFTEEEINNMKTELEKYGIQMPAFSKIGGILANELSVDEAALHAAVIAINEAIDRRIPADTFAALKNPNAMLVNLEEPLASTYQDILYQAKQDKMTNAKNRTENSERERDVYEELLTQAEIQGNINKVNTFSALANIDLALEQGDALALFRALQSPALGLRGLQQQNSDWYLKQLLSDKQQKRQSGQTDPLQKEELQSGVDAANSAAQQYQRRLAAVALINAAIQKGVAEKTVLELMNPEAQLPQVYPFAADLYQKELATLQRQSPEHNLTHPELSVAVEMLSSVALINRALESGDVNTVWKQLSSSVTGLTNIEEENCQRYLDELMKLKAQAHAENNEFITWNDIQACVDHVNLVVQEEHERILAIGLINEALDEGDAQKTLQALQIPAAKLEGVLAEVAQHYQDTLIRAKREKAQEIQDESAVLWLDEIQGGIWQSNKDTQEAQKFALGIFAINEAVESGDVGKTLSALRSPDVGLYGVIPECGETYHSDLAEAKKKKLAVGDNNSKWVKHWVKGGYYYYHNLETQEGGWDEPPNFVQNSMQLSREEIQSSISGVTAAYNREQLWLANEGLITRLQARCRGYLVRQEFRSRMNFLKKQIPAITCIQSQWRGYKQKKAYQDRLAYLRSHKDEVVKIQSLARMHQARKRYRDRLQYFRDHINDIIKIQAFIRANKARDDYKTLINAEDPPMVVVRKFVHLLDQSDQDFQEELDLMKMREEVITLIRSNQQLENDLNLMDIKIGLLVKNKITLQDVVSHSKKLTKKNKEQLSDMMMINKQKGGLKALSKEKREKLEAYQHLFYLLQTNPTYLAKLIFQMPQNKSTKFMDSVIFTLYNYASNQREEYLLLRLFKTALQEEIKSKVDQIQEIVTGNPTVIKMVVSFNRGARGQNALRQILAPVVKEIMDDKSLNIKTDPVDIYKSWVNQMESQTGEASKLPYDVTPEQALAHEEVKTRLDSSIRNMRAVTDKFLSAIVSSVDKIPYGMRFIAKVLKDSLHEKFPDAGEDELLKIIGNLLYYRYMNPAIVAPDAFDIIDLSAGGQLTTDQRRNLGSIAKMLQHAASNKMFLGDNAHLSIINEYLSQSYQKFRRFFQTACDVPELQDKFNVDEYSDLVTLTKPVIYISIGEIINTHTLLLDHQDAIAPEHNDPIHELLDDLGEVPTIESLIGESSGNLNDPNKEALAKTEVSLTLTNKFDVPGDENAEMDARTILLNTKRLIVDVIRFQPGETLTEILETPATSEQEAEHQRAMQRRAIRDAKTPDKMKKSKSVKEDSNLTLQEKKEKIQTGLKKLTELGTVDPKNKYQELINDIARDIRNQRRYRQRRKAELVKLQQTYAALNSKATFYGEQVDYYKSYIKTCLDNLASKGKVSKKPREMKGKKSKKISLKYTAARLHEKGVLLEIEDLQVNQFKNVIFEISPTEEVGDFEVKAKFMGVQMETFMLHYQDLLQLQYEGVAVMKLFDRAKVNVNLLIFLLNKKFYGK
UniProt Q7Z5Y7: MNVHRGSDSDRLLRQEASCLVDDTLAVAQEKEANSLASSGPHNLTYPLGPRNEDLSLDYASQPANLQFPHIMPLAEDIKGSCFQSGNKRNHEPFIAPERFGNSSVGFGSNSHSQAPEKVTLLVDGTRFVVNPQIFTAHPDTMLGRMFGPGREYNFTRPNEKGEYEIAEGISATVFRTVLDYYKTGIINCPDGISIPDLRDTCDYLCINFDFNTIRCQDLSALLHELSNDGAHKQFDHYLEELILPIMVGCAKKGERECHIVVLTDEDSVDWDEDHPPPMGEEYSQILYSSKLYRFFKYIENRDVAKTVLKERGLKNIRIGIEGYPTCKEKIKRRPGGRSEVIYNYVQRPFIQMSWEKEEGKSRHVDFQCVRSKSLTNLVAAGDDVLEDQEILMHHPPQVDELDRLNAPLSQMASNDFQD

Columns and labels:
Assay in all cases: log2 fold change, soluble protein after heating vs DMSO (PISA); higher = thermal stabilisation; K562 lysate, 10 uM; active = over 0.2 and 3.5 SD of the protein, either way, in both replicates (recomputed)
lapatinib = compound: CS(=O)(=O)CCNCc1ccc(-c2ccc3ncnc(Nc4ccc(OCc5cccc(F)c5)c(Cl)c4)c3c2)o1 [lapatinib]
Method in brief: (§1)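 To prepare the extract, K562 pellets were dounce-homogenised in PBS pH 7.4 with 1 mM MgCl2, giving crude material at 1 mg/mL protein. This was treated with 10 μM compound for 30 min, then heated in aliquots for 3 min over 48°C-58°C before pooling and addition of NP-40 to 0.5% at 4°C. Centrifugation at 21,000xg for 90 min left soluble protein in the supernatant, which TMTpro 16plex LC-MS/MS quantified with equalised channel sums. Results are log-two fold changes in thermal stability compared with solvent controls, from duplicates.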

pictilisib = compound: CS(=O)(=O)N1CCN(Cc2cc3nc(-c4cccc5[nH]ncc45)nc(N4CCOCC4)c3s2)CC1 [pictilisib]
Method in brief: as §1

crizotinib = compound: C[C@@H](Oc1cc(-c2cnn(C3CCNCC3)c2)cnc1N)c1c(Cl)ccc(F)c1Cl [crizotinib]
Method in brief: as §1

[1] = compound: C[C@H](C1=CC=C(C=C1)C(=O)NC2=C3C=CNC3=NC=C2)N
Method in brief: as §1

duvelisib = compound: C[C@H](Nc1ncnc2nc[nH]c12)c1cc2cccc(Cl)c2c(=O)n1-c1ccccc1 [duvelisib]
Method in brief: as §1

gandotinib = compound: Cc1cc(Nc2cc(CN3CCOCC3)c3nc(C)c(Cc4ccc(Cl)cc4F)n3n2)n[nH]1 [gandotinib]
Method in brief: as §1

tozasertib = compound: Cc1cc(Nc2cc(N3CCN(C)CC3)nc(Sc3ccc(NC(=O)C4CC4)cc3)n2)n[nH]1 [tozasertib]
Method in brief: as §1

doramapimod = compound: Cc1ccc(-n2nc(C(C)(C)C)cc2NC(=O)Nc2ccc(OCCN3CCOCC3)c3ccccc23)cc1 [doramapimod]
Method in brief: as §1

bafetinib = compound: Cc1ccc(NC(=O)c2ccc(CN3CC[C@H](N(C)C)C3)c(C(F)(F)F)c2)cc1Nc1nccc(-c2cncnc2)n1 [bafetinib]
Method in brief: as §1

[2] = compound: Cc1cccc(CC(=O)N2CCc3c2ccc(-c2cn(C)c4ncnc(N)c24)c3F)n1
Method in brief: as §1

nilotinib = compound: Cc1cn(-c2cc(NC(=O)c3ccc(C)c(Nc4nccc(-c5cccnc5)n4)c3)cc(C(F)(F)F)c2)cn1 [nilotinib]
Method in brief: as §1

[3] = compound: Cc1nc(Nc2n[nH]c3c2CN(C(=O)N[C@H](CN(C)C)c2ccccc2)C3(C)C)c2sccc2n1
Method in brief: as §1

dasatinib = compound: Cc1nc(Nc2ncc(C(=O)Nc3c(C)cccc3Cl)s2)cc(N2CCN(CCO)CC2)n1 [dasatinib]
Method in brief: as §1

[4] = compound: Cc1ncc(-c2ccnc(Nc3ccc(S(C)(=O)=O)cc3)n2)n1C(C)C
Method in brief: as §1

[5] = compound: Cn1cc(-c2ccc3c(c2)CCN3C(=O)Cc2cccc(C(F)(F)F)c2)c2c(N)ncnc21
Method in brief: as §1

quisinostat = compound: Cn1cc(CNCC2CCN(c3ncc(C(=O)NO)cn3)CC2)c2ccccc21 [quisinostat]
Method in brief: as §1

tipifarnib = compound: Cn1cncc1[C@@](N)(c1ccc(Cl)cc1)c1ccc2c(c1)c(-c1cccc(Cl)c1)cc(=O)n2C [tipifarnib]
Method in brief: as §1

[6] = compound: NC(=O)Nc1cc(-c2cccc(F)c2)sc1C(=O)N[C@H]1CCCNC1
Method in brief: as §1

[7] = compound: NC(=O)c1cnc(N[C@@H]2CCCC[C@@H]2N)nc1Nc1cccc(-n2nccn2)c1
Method in brief: as §1

[8] = compound: NC1(c2ccc(-c3nc4ccn5c(=O)[nH]nc5c4cc3-c3ccccc3)cc2)CCC1
Method in brief: as §1

Measured: log2 fold change

INTS9 (UniProt Q9NV88)
inactive: lapatinib -0.003 | pictilisib 0.011 | crizotinib -0.047 | [1] -0.129 | duvelisib -0.011 | gandotinib 0.003 | tozasertib 0.001 | doramapimod 0.024 | bafetinib -0.027 | [2] 0.078 | nilotinib 0.052 | [3] -0.043 | dasatinib -0.041 | [4] -0.018 | [5] 0.027 | quisinostat -0.062 | tipifarnib -0.008 | [6] 0.027 | [7] 0.015 | [8] -0.032

ISOC2 (UniProt Q96AB3)
inactive: lapatinib -0.036 | pictilisib 0.038 | crizotinib 0.023 | [1] 0.05 | duvelisib -0.038 | gandotinib -0.076 | tozasertib -0.065 | doramapimod -0.014 | bafetinib -0.058 | [2] 0.095 | nilotinib 0.012 | [3] 0.022 | dasatinib 0.026 | [4] 0.091 | [5] 0 | quisinostat -0.053 | tipifarnib -0.017 | [6] -0.05 | [7] -0.045 | [8] -0.036

KAT5 isoform 3 (UniProt Q92993)
inactive: lapatinib -0.03 | pictilisib 0.062 | crizotinib -0.008 | [1] 0.032 | duvelisib 0.013 | gandotinib -0.085 | tozasertib -0.171 | doramapimod 0.009 | bafetinib -0.055 | [2] -0.051 | nilotinib 0.183 | [3] 0.104 | dasatinib -0.167 | [4] 0 | [5] 0.18 | quisinostat -0.111 | tipifarnib -0.4 | [6] 0.065 | [7] 0.023 | [8] 0.192

ISG15 (UniProt P05161)
inactive: lapatinib 0.059 | pictilisib -0.024 | crizotinib -0.038 | [1] -0.014 | duvelisib 0.017 | gandotinib 0.034 | tozasertib -0.043 | doramapimod 0.024 | bafetinib -0.01 | [2] 0.007 | nilotinib -0.015 | [3] -0.073 | dasatinib -0.03 | [4] -0.013 | [5] -0.021 | quisinostat -0.05 | tipifarnib -0.005 | [6] 0.026 | [7] -0.013 | [8] -0.032

IRF2 (UniProt P14316)
inactive: lapatinib 0.044 | pictilisib 0.057 | crizotinib -0.004 | [1] -0.028 | duvelisib 0.057 | gandotinib 0.125 | tozasertib 0.015 | doramapimod 0.039 | bafetinib 0.029 | [2] 0.038 | nilotinib 0.001 | [3] -0.012 | dasatinib 0.049 | [4] 0.059 | [5] -0.001 | quisinostat 0.029 | tipifarnib -0.021 | [6] -0.028 | [7] 0.002 | [8] 0.02

KBTBD4 isoform 2 (UniProt Q9NVX7)
inactive: lapatinib 0.03 | pictilisib -0.015 | crizotinib -0.038 | [1] -0.075 | duvelisib 0.056 | gandotinib 0.109 | tozasertib -0.068 | doramapimod -0.023 | bafetinib -0.013 | [2] 0.047 | nilotinib 0.063 | [3] -0.019 | dasatinib -0.017 | [4] -0.086 | [5] -0.022 | quisinostat -0.038 | tipifarnib 0.154 | [6] 0.086 | [7] -0.018 | [8] -0.039

KAZN (UniProt Q674X7)
inactive: lapatinib 0.041 | pictilisib -0.007 | crizotinib -0.001 | [1] -0.018 | duvelisib 0.065 | gandotinib 0.036 | tozasertib 0.064 | doramapimod -0.007 | bafetinib -0.054 | [2] 0.011 | nilotinib -0.011 | [3] -0.032 | dasatinib 0.07 | [4] 0.021 | [5] 0.007 | quisinostat -0.011 | tipifarnib -0.06 | [6] 0.015 | [7] 0.017 | [8] -0.143

INTS14 (UniProt Q96SY0)
inactive: lapatinib 0 | pictilisib 0.016 | crizotinib 0.005 | [1] 0.038 | duvelisib 0.012 | gandotinib -0.035 | tozasertib -0.011 | doramapimod -0.012 | bafetinib 0.009 | [2] -0.027 | nilotinib 0.024 | [3] 0.023 | dasatinib -0.038 | [4] -0.023 | [5] -0.004 | quisinostat -0.018 | tipifarnib -0.004 | [6] -0.01 | [7] -0.026 | [8] -0.011

JMJD4 (UniProt Q9H9V9)
inactive: lapatinib -0.033 | pictilisib -0.064 | crizotinib 0.035 | [1] -0.024 | duvelisib 0.044 | gandotinib -0.07 | tozasertib -0.205 | doramapimod 0.137 | bafetinib 0.051 | [2] 0.072 | nilotinib -0.049 | [3] 0.006 | dasatinib -0.157 | [4] 0.017 | [5] -0.142 | quisinostat 0.028 | tipifarnib 0.016 | [6] 0.108 | [7] 0.01 | [8] 0.129

INTS7 (UniProt Q9NVH2)
inactive: lapatinib 0.01 | pictilisib -0.032 | crizotinib -0.07 | [1] -0.096 | duvelisib 0.01 | gandotinib -0.077 | tozasertib -0.01 | doramapimod 0.4 | bafetinib 0.141 | [2] 0.012 | nilotinib -0.02 | [3] -0.014 | dasatinib -0.004 | [4] -0.009 | [5] -0.008 | quisinostat -0.071 | tipifarnib 0.037 | [6] 0.088 | [7] 0.032 | [8] -0.002

KBTBD2 (UniProt Q8IY47)
inactive: lapatinib -0.036 | pictilisib -0.019 | crizotinib -0.073 | [1] -0.139 | duvelisib -0.01 | gandotinib 0.124 | tozasertib -0.056 | doramapimod -0.005 | bafetinib -0.07 | [2] 0.138 | nilotinib 0.014 | [3] -0.005 | dasatinib 0.012 | [4] 0.006 | [5] 0.028 | quisinostat -0.178 | tipifarnib -0.018 | [6] 0.007 | [7] 0.009 | [8] -0.202

KCNAB2 (UniProt Q13303)
inactive: lapatinib 0.018 | pictilisib 0.011 | crizotinib -0.059 | [1] -0.074 | duvelisib -0.019 | gandotinib 0.028 | tozasertib 0.066 | doramapimod -0.029 | bafetinib -0.031 | [2] 0.025 | nilotinib 0.021 | [3] -0.032 | dasatinib 0.017 | [4] 0.01 | [5] 0.058 | quisinostat -0.028 | tipifarnib -0.016 | [6] 0.034 | [7] -0.026 | [8] 0.007

KCTD3 (UniProt Q9Y597)
inactive: lapatinib -0.012 | pictilisib -0.013 | crizotinib -0.012 | [1] -0.079 | duvelisib -0.022 | gandotinib 0.044 | tozasertib 0.001 | doramapimod 0.044 | bafetinib -0.054 | [2] 0.017 | nilotinib 0.031 | [3] 0.014 | dasatinib 0.063 | [4] -0.019 | [5] 0.029 | quisinostat -0.081 | tipifarnib -0.034 | [6] -0.02 | [7] -0.021 | [8] 0.033

ITPA (UniProt Q9BY32)
inactive: lapatinib -0.018 | pictilisib -0.023 | crizotinib -0.019 | [1] -0.089 | duvelisib -0.005 | gandotinib 0.07 | tozasertib -0.021 | doramapimod 0.048 | bafetinib 0.045 | [2] 0.037 | nilotinib 0.034 | [3] -0.033 | dasatinib 0.009 | [4] 0.031 | [5] -0.025 | quisinostat -0.009 | tipifarnib 0.003 | [6] 0.018 | [7] 0.01 | [8] 0.029

2 consecutive records from above, for reference:
ISOC2 (UniProt Q96AB3)
inactive: lapatinib -0.036 | pictilisib 0.038 | crizotinib 0.023 | [1] 0.05 | duvelisib -0.038 | gandotinib -0.076 | tozasertib -0.065 | doramapimod -0.014 | bafetinib -0.058 | [2] 0.095 | nilotinib 0.012 | [3] 0.022 | dasatinib 0.026 | [4] 0.091 | [5] 0 | quisinostat -0.053 | tipifarnib -0.017 | [6] -0.05 | [7] -0.045 | [8] -0.036

KAT5 isoform 3 (UniProt Q92993)
inactive: lapatinib -0.03 | pictilisib 0.062 | crizotinib -0.008 | [1] 0.032 | duvelisib 0.013 | gandotinib -0.085 | tozasertib -0.171 | doramapimod 0.009 | bafetinib -0.055 | [2] -0.051 | nilotinib 0.183 | [3] 0.104 | dasatinib -0.167 | [4] 0 | [5] 0.18 | quisinostat -0.111 | tipifarnib -0.4 | [6] 0.065 | [7] 0.023 | [8] 0.192

(further entries)

IQGAP1 (UniProt P46940)
inactive: lapatinib -0.022 | pictilisib 0.006 | crizotinib -0.016 | [1] 0.005 | duvelisib -0.002 | gandotinib -0.082 | tozasertib 0.026 | doramapimod -0.013 | bafetinib 0.001 | [2] 0.025 | nilotinib -0.001 | [3] -0.004 | dasatinib -0.012 | [4] -0.01 | [5] 0.01 | quisinostat -0.002 | tipifarnib 0.004 | [6] -0.006 | [7] 0.01 | [8] 0.021

KCTD20 (UniProt Q7Z5Y7)
inactive: lapatinib -0.064 | pictilisib 0.039 | crizotinib -0.077 | [1] 0.006 | duvelisib -0.082 | gandotinib 0.006 | tozasertib -0.119 | doramapimod -0.01 | bafetinib 0.007 | [2] -0.005 | nilotinib 0.054 | [3] -0.021 | dasatinib -0.096 | [4] 0.074 | [5] 0.039 | quisinostat -0.138 | tipifarnib -0.028 | [6] 0.109 | [7] 0.089 | [8] -0.007
